In PMC5432265 one finds binding data, which are given here for two molecules.

The chains behind the UniProt entries cited, without tags or fusion partners.
UniProt Q08211: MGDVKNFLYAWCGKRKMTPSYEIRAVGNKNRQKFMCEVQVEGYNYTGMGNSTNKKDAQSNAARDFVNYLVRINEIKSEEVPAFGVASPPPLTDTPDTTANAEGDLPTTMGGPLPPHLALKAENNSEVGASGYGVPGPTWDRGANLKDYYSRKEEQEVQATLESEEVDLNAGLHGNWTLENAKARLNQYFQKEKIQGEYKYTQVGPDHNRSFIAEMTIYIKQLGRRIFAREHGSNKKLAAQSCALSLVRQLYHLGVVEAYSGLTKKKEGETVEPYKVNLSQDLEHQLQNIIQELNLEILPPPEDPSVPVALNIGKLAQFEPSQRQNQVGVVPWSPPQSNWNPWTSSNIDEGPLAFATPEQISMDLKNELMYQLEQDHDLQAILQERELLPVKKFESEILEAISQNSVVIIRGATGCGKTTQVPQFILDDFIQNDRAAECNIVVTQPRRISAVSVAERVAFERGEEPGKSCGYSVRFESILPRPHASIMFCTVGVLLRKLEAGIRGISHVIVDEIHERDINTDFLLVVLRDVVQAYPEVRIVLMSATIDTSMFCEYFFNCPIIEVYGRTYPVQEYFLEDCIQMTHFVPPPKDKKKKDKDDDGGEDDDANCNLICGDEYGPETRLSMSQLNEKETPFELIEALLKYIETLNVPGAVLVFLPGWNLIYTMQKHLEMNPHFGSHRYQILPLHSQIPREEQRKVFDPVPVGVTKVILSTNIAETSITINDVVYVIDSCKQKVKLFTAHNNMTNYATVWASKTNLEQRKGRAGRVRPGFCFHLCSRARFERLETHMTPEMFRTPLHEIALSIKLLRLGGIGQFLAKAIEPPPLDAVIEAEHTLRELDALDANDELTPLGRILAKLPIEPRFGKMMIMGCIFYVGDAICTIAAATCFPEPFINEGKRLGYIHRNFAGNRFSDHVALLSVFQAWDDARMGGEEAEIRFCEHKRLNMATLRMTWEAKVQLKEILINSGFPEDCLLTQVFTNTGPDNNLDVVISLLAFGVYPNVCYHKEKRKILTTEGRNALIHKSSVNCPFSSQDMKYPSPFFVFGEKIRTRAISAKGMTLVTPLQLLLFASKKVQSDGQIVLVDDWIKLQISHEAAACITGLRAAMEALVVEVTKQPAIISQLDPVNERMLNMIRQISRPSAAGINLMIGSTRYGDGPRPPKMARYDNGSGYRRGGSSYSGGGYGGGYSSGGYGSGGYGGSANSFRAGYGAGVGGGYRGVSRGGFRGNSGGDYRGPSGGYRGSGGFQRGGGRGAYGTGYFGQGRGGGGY
UniProt P49736: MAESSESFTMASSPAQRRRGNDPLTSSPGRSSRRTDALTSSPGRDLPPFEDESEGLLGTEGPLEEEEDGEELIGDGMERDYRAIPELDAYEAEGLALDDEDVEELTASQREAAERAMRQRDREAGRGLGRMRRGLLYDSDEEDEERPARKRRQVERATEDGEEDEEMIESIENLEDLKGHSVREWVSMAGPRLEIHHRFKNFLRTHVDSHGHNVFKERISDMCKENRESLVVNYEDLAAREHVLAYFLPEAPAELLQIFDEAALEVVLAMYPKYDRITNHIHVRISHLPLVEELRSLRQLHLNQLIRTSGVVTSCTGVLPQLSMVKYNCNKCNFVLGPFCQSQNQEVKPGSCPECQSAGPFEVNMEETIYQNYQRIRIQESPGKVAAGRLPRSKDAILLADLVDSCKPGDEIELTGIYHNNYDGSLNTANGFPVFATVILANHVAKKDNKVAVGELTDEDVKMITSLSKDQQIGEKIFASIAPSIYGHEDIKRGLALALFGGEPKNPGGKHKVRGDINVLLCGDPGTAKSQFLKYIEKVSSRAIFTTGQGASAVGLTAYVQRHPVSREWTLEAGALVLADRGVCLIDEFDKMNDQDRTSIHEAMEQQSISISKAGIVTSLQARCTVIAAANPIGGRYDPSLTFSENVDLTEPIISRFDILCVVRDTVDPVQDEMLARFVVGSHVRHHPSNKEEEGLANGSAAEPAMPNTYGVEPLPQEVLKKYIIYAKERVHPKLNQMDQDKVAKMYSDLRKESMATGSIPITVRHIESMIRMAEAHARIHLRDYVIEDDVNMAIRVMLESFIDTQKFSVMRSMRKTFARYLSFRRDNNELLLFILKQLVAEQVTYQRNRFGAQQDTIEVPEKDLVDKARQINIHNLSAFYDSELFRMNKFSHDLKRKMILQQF

The assay addresses DExH-box helicase 9 (human (endogenous in 293T, MNNG/HOS, U2OS)) (UniProt Q08211). Description: co-IP; whole-cell lysates of MNNG/HOS immunoprecipitated with anti-DHX9 antibody (IgG as negative control); immunoblotting with anti-MCM2, MCM3 and DHX9 antibodies. On the technique in general: In western blotting, separated proteins are transferred to a membrane and probed.

No constants are given. Whether binding was seen depends on the method and setting. Binding seen in cells or lysates may run through a third protein. Some entries that bind do so weakly or less than the wild type.

On to “minichromosome maintenance protein 2 (from UniProt P49736 1-904)”, for which the binding entry is given as “binds”.

B1: minichromosome maintenance protein 3 (protein, UniProt P25205 1-808)
chain: MAGTVVLDDVELREAQRDYLDFLDDEEDQGIYQSKVRELISDNQYRLIVNVNDLRRKNEKRANRLLNNAFEELVAFQRALKDFVASIDATYAKQYEEFYVGLEGSFGSKHVSPRTLTSCFLSCVVCVEGIVTKCSLVRPKVVRSVHYCPATKKTIERRYSDLTTLVAFPSSSVYPTKDEENNPLETEYGLSVYKDHQTITIQEMPEKAPAGQLPRSVDVILDDDLVDKAKPGDRVQVVGTYRCLPGKKGGYTSGTFRTVLIACNVKQMSKDAQPSFSAEDIAKIKKFSKTRSKDIFDQLAKSLAPSIHGHDYVKKAILCLLLGGVERDLENGSHIRGDINILLIGDPSVAKSQLLRYVLCTAPRAIPTTGRGSSGVGLTAAVTTDQETGERRLEAGAMVLADRGVVCIDEFDKMSDMDRTAIHEVMEQGRVTIAKAGIHARLNARCSVLAAANPVYGRYDQYKTPMENIGLQDSLLSRFDLLFIMLDQMDPEQDREISDHVLRMHRYRAPGEQDGDAMPLGSAVDILATDDPNFSQEDQQDTQIYEKHDNLLHGTKKKKEKMVSAAFMKKYIHVAKIIKPVLTQESATYIAEEYSRLRSQDSMSSDTARTSPVTARTLETLIRLATAHAKARMSKTVDLQDAEEAVELVQYAYFKKVLEKEKKRKKRSEDESETEDEEEKSQEDQEQKRKRRKTRQPDAKDGDSYDPYDFSDTEEEMPQVHTPKTADSQETKESQKVELSESRLKAFKVALLDVFREAHAQSIGMNRLTESINRDSEEPFSSVEIQAALSKMQDDNQVMVSEGIIFLI
For the molecule B1, the binding result is on record as “binds”.
